Source: the supplement of paper PMC8728848
This is one part of the list.

Key:
Experiment in all cases: glycan array binding signal (z-score within array); higher = stronger binding
Conditions in all cases: glycan notation: IUPAC condensed, linker removed
[1] = target: GlcNAc(b1-3)Gal(b1-4)GlcNAc(b1-3)Gal(b1-4)GlcNAc(b1-3)Gal(b1-4)GlcNAc(b1-3)Gal(b1-4)GlcNAc(b1-2)[GlcNAc(b1-3)Gal(b1-4)GlcNAc(b1-3)Gal(b1-4)GlcNAc(b1-3)Gal(b1-4)GlcNAc(b1-3)Gal(b1-4)GlcNAc(b1-6)]Man(a1-6)[GlcNAc(b1-3)Gal(b1-4)GlcNAc(b1-3)Gal(b1-4)GlcNAc(b1-3)Gal(b1-4)GlcNAc(b1-3)Gal(b1-4)GlcNAc(b1-2)Man(a1-3)]Man(b1-4)GlcNAc(b1-4)[Fuc(a1-6)]GlcNAc
Method in brief: (§1)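 Glycan array binding is given as a within-array Z-score, which can be read as non-binding when negative. The arrays, 3228 of them, came from the Consortium for Functional Glycomics database and were retained only where the protein sequence was available. Z-scores were averaged across arrays of the same protein sequence at different concentrations or buffers and across linkers.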

[2] = target: GlcNAc(b1-3)Gal(b1-4)GlcNAc(b1-3)Gal(b1-4)GlcNAc(b1-3)GalNAc
Method in brief: as §1

[3] = target: GlcNAc(b1-3)Gal(b1-4)GlcNAc(b1-3)GalNAc
Method in brief: as §1

[4] = target: GlcNAc(b1-3)Gal(b1-4)GlcNAc(b1-3)[GlcNAc(b1-3)Gal(b1-4)GlcNAc(b1-3)]GalNAc
Method in brief: as §1

[5] = target: GlcNAc(b1-3)Gal(b1-4)GlcNAc(b1-6)[Gal(b1-3)]GalNAc
Method in brief: as §1

[6] = target: GlcNAc(b1-3)Gal(b1-4)GlcNAc(b1-6)[GlcNAc(b1-3)Gal(b1-3)]GalNAc
Method in brief: as §1

[7] = target: GlcNAc(b1-3)Gal(b1-4)GlcNAc(b1-6)[GlcNAc(b1-3)]Gal(b1-4)GlcNAc
Method in brief: as §1

GlcNAc(b1-3)GalNAc = target: GlcNAc(b1-3)GalNAc
Method in brief: as §1

GlcNAc(b1-3)Man = target: GlcNAc(b1-3)Man
Method in brief: as §1

[8] = target: GlcNAc(b1-3)[GlcNAc(b1-4)][GlcNAc(b1-6)]GlcNAc
Method in brief: as §1

[9] = target: GlcNAc(b1-3)[GlcNAc(b1-6)]Gal(b1-4)GlcNAc
Method in brief: as §1

[10] = target: GlcNAc(b1-3)[GlcNAc(b1-6)]GalNAc
Method in brief: as §1

[11] = target: GlcNAc(b1-4)Gal(b1-4)GlcNAc
Method in brief: as §1

GlcNAc(b1-4)GlcNAc = target: GlcNAc(b1-4)GlcNAc
Method in brief: as §1

[12] = target: GlcNAc(b1-4)GlcNAc(b1-4)GlcNAc
Method in brief: as §1

[13] = target: GlcNAc(b1-4)GlcNAc(b1-4)GlcNAc(b1-4)GlcNAc(b1-4)GlcNAc
Method in brief: as §1

[14] = target: GlcNAc(b1-4)GlcNAc(b1-4)GlcNAc(b1-4)GlcNAc(b1-4)GlcNAc(b1-4)GlcNAc
Method in brief: as §1

[15] = target: GlcNAc(b1-4)[GlcNAc(b1-6)]GalNAc
Method in brief: as §1

[16] = target: GlcNAc(b1-6)Gal(b1-4)GlcNAc
Method in brief: as §1

GlcNAc(b1-6)GalNAc = target: GlcNAc(b1-6)GalNAc
Method in brief: as §1

[17] = target: GlcNAc6S(b1-3)Gal(b1-4)GlcNAc
Method in brief: as §1

Kdn(a2-3)Gal(b1-3)GalNAc = target: Kdn(a2-3)Gal(b1-3)GalNAc
Method in brief: as §1

Kdn(a2-3)Gal(b1-3)GlcNAc = target: Kdn(a2-3)Gal(b1-3)GlcNAc
Method in brief: as §1

Kdn(a2-3)Gal(b1-4)Glc = target: Kdn(a2-3)Gal(b1-4)Glc
Method in brief: as §1

Kdn(a2-3)Gal(b1-4)GlcNAc = target: Kdn(a2-3)Gal(b1-4)GlcNAc
Method in brief: as §1

[18] = target: Kdn(a2-3)Gal(b1-4)[Fuc(a1-3)]GlcNAc
Method in brief: as §1

Kdn(a2-6)Gal(b1-4)GlcNAc = target: Kdn(a2-6)Gal(b1-4)GlcNAc
Method in brief: as §1

[19] = target: Man(a1-2)Man(a1-2)Man(a1-3)Man
Method in brief: as §1

[20] = target: Man(a1-2)Man(a1-2)Man(a1-6)[Man(a1-3)]Man
Method in brief: as §1

Man(a1-2)Man(a1-3)Man = target: Man(a1-2)Man(a1-3)Man
Method in brief: as §1

[21] = target: Man(a1-2)Man(a1-3)[Man(a1-2)Man(a1-6)]Man
Method in brief: as §1

[22] = target: Man(a1-2)Man(a1-3)[Man(a1-2)Man(a1-6)]Man(a1-6)[Man(a1-2)Man(a1-2)Man(a1-3)]Man
Method in brief: as §1

[23] = target: Man(a1-2)Man(a1-3)[Man(a1-2)Man(a1-6)]Man(a1-6)[Man(a1-2)Man(a1-2)Man(a1-3)]Man(b1-4)GlcNAc(b1-4)GlcNAc
Method in brief: as §1

[24] = target: Man(a1-2)Man(a1-3)[Man(a1-6)]Man(a1-6)[Man(a1-2)Man(a1-3)]Man(b1-4)GlcNAc(b1-4)GlcNAc
Method in brief: as §1

[25] = target: Man(a1-2)Man(a1-6)[Man(a1-3)]Man(a1-6)[Man(a1-2)Man(a1-2)Man(a1-3)]Man
Method in brief: as §1

[26] = target: Man(a1-2)Man(a1-6)[Man(a1-3)]Man(a1-6)[Man(a1-2)Man(a1-2)Man(a1-3)]Man(b1-4)GlcNAc(b1-4)GlcNAc
Method in brief: as §1

Man(a1-3)[Man(a1-6)]Man = target: Man(a1-3)[Man(a1-6)]Man
Method in brief: as §1

[27] = target: Man(a1-3)[Man(a1-6)]Man(a1-6)[Man(a1-2)Man(a1-3)]Man(b1-4)GlcNAc(b1-4)GlcNAc
Method in brief: as §1

[28] = target: Man(a1-3)[Man(a1-6)]Man(a1-6)[Man(a1-3)]Man
Method in brief: as §1

[29] = target: Man(a1-3)[Man(a1-6)]Man(a1-6)[Man(a1-3)]Man(b1-4)GlcNAc(b1-4)GlcNAc
Method in brief: as §1

[30] = target: Man(a1-3)[Man(a1-6)]Man(b1-4)GlcNAc(b1-4)GlcNAc
Method in brief: as §1

[31] = target: Man(a1-3)[Man(a1-6)]Man(b1-4)GlcNAc(b1-4)[Fuc(a1-6)]GlcNAc
Method in brief: as §1

Man(a1-6)Man = target: Man(a1-6)Man
Method in brief: as §1

Man(b1-4)GlcNAc = target: Man(b1-4)GlcNAc
Method in brief: as §1

MurNAc(b1-4)GlcNAc = target: MurNAc(b1-4)GlcNAc
Method in brief: as §1

B1: XTP3-B-MRH2 (Homo sapiens), Q96DZ1 (protein)
chain: EFLSGSYCFRGGVGWWKYEFCYGKHVHQYHEDKDSGKTSVVVGTWNQEEHIEWAKKNTARAYHLQDDGTQTVRMVSHFYGNGDICDITDKPRQVTVKLKCKESDSPHAVTVYMLEPHSCQYILGVESPVICKILDTA
- glycan array binding signal (z-score) [1]: 1.22
- glycan array binding signal (z-score) [2]: -0.328
- glycan array binding signal (z-score) [3]: -0.741
- glycan array binding signal (z-score) [4]: 0.613
- glycan array binding signal (z-score) [5]: -0.591
- glycan array binding signal (z-score) [6]: 1.89
- glycan array binding signal (z-score) [7]: -0.516
- glycan array binding signal (z-score) (GlcNAc(b1-3)GalNAc): 0.262
- glycan array binding signal (z-score) (GlcNAc(b1-3)Man): -1.08
- glycan array binding signal (z-score) [8]: -0.72
- glycan array binding signal (z-score) [9]: -0.392
- glycan array binding signal (z-score) [10]: 0.188
- glycan array binding signal (z-score) [11]: 0.065
- glycan array binding signal (z-score) (GlcNAc(b1-4)GlcNAc): -0.456
- glycan array binding signal (z-score) [12]: -1.04
- glycan array binding signal (z-score) [13]: 0.528
- glycan array binding signal (z-score) [14]: -0.1
- glycan array binding signal (z-score) [15]: -1.48
- glycan array binding signal (z-score) [16]: 0.376
- glycan array binding signal (z-score) (GlcNAc(b1-6)GalNAc): 0.959
- glycan array binding signal (z-score) [17]: -0.257
- glycan array binding signal (z-score) (Kdn(a2-3)Gal(b1-3)GalNAc): -0.139
- glycan array binding signal (z-score) (Kdn(a2-3)Gal(b1-3)GlcNAc): 0.111
- glycan array binding signal (z-score) (Kdn(a2-3)Gal(b1-4)Glc): 1.3
- glycan array binding signal (z-score) (Kdn(a2-3)Gal(b1-4)GlcNAc): 1.28
- glycan array binding signal (z-score) [18]: -0.353
- glycan array binding signal (z-score) (Kdn(a2-6)Gal(b1-4)GlcNAc): -1.59
- glycan array binding signal (z-score) [19]: -0.517
- glycan array binding signal (z-score) [20]: -0.173
- glycan array binding signal (z-score) (Man(a1-2)Man(a1-3)Man): 0.577
- glycan array binding signal (z-score) [21]: 0.743
- glycan array binding signal (z-score) [22]: 0.213
- glycan array binding signal (z-score) [23]: -0.61
- glycan array binding signal (z-score) [24]: -1.13
- glycan array binding signal (z-score) [25]: -0.456
- glycan array binding signal (z-score) [26]: -0.65
- glycan array binding signal (z-score) (Man(a1-3)[Man(a1-6)]Man): -0.196
- glycan array binding signal (z-score) [27]: 0.608
- glycan array binding signal (z-score) [28]: 0.221
- glycan array binding signal (z-score) [29]: 1.3
- glycan array binding signal (z-score) [30]: 0.243
- glycan array binding signal (z-score) [31]: -0.07
- glycan array binding signal (z-score) (Man(a1-6)Man): -1.23
- glycan array binding signal (z-score) (Man(b1-4)GlcNAc): 0.102
- glycan array binding signal (z-score) (MurNAc(b1-4)GlcNAc): -0.655
